No constants are given. Whether binding was seen depends on the method and setting. In cells and extracts the contact can be indirect. Some entries that bind do so weakly or less than the wild type.
Biological target: death receptor (DR)5 (human (endogenous in L-O2)) (UniProt O14763)
Assay: co-IP; DR5 immunoprecipitated (DISC isolation) from whole-cell extracts of L-O2 and L-O2-HBx cells 15 min after TRAIL (30 ng/ml), also L-O2-HBx cells transfected with the A20 expression vector or control vector; IP buffer 1% Nonidet P-40, 50 mM Tris-HCl pH 7.4, 50 mM EDTA, 150 mM NaCl; protein A/G plus agarose beads and 5 ug antibody overnight at 4 °C; partners detected by western blot

Chains of the proteins cited; added tags and fusions are not shown. Residues count along the entry.
UniProt O14763, residues 56-440: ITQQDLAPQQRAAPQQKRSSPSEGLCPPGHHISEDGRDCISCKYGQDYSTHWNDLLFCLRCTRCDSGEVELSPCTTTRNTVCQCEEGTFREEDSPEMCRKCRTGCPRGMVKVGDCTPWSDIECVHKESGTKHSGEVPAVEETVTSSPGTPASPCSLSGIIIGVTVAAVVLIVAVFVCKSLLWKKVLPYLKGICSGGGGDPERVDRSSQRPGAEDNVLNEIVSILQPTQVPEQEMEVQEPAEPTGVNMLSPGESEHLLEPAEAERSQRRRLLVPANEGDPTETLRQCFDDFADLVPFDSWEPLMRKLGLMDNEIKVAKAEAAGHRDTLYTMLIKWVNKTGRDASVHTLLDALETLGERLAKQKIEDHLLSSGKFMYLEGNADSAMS
UniProt Q13158: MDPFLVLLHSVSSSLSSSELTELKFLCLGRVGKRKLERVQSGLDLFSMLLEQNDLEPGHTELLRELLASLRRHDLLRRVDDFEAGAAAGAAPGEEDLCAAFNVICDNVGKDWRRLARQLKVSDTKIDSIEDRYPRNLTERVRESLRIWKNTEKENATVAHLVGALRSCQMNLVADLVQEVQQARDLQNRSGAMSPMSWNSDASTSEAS
UniProt Q13546: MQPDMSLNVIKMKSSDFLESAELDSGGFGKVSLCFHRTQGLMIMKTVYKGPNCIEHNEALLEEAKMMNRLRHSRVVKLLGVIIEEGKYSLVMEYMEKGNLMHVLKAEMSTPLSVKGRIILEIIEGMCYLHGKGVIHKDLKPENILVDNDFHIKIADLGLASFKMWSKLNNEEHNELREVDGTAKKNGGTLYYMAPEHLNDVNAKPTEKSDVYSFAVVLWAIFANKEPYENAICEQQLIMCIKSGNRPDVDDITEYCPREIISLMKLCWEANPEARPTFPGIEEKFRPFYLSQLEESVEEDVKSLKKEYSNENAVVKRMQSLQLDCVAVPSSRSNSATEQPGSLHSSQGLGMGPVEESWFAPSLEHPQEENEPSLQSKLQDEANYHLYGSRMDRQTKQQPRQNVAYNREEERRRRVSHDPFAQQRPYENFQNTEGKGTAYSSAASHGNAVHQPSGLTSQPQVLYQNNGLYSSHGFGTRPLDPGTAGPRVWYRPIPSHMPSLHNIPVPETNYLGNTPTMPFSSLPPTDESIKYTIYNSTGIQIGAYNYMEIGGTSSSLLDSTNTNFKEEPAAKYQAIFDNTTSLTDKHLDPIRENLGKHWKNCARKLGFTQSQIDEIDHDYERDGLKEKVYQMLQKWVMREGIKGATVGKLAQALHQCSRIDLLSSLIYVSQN

Substance	binding
Fas-associated death domain (FADD) (from UniProt Q13158 1-208)	binds
receptor-interacting protein (RIP)1 (from UniProt Q13546 1-671)	binds

Reference: paper PMC4439114
